The list shows only some results of the screen, not a fair sample: it is rich in T/C values a quarter to a half above the control, in often repeated tests (any T/C) and in doses without a T/C. Further doses and runs are listed elsewhere. T/C gives the treated animals as a percentage of the vehicle group. Some entries give survivors of the animals treated and no T/C: the source files T/C as zero there, which appears to mark a toxic dose or a test without result, not a measured value. Some survivor counts are full or nearly so, which does not show that the dose was tolerated: survival well below the control is almost never listed, so the zero probably covers shortened survival too. Survivors were counted at the toxicity check, usually on the fifth day, unless a day is given; later deaths do not show. Schedules are NCI's codes, read here as Q, the interval in days (D) or hours (H), X, the number of doses. Some entries were tested several times; the results are listed from low to high. For survival time, this PubChem deposit counts one and a half times the control or more as active, and values a quarter to a half above the control carry no call in these data; other NCI protocols may use other cut-offs. Counts like (3×) stand for listed records that agree.

For the experiment, the system named is L1210 leukemia ip in BDF1 mice, survival T/C. Briefly: NCI In Vivo Anticancer Drug Screen. Data for tumor model L1210 Leukemia (intraperitoneal) in B6D2F1 (BDF1) mice. The following applies: higher T/C = longer survival.
The mark [1] stands for this setting: T/C endpoint: mean survival time, dose: 400.0 mg/kg/injection, schedule: Q01DX001 (ip), vehicle: saline.
Where [2] appears, read: T/C endpoint: mean survival time, dose: 400.0 mg/kg/injection, schedule: Q04DX003 (ip), vehicle: saline with Tween-80.
The mark [3] stands for this setting: T/C endpoint: mean survival time, dose: 400.0 mg/kg/injection, schedule: Q01DX009 (ip), vehicle: saline.

As to `Cc1cccc(C(=O)[O][Pb]([CH3])([CH3])[CH3])c1`, the survivor count is recorded as 2 of 3 (T/C endpoint: mean survival time, dose: 25.0 mg/kg/injection, schedule: Q04DX002 (ip), vehicle: Klucel (hydroxypropylcellulose) (HPC)); 0 of 3 (T/C endpoint: mean survival time, dose: 50.0 mg/kg/injection, schedule: Q04DX002 (ip), vehicle: Klucel (hydroxypropylcellulose) (HPC)); 0 of 3 (T/C endpoint: mean survival time, dose: 100.0 mg/kg/injection, schedule: Q04DX002 (ip), vehicle: Klucel (hydroxypropylcellulose) (HPC)); 0 of 3 (T/C endpoint: mean survival time, dose: 200.0 mg/kg/injection, schedule: Q04DX002 (ip), vehicle: Klucel (hydroxypropylcellulose) (HPC)); 0 of 3 (T/C endpoint: mean survival time, dose: 400.0 mg/kg/injection, schedule: Q04DX002 (ip), vehicle: Klucel (hydroxypropylcellulose) (HPC)).
`O=C(C[n+]1ccc2ccccc2c1)c1ccc(-c2ccccc2)cc1`: the survivor count under setting [1] is 3 of 6.
Consider `Cc1cc(N)c2ccccc2[n+]1CCCCCCCCCC[n+]1c(C)cc(N)c2ccccc21`, for which the survivor count (T/C endpoint: mean survival time, dose: 6.0 mg/kg/injection, schedule: Q01DX009 (ip), vehicle: Klucel (hydroxypropylcellulose) (HPC)) is given as 6 of 6; the survivor count (T/C endpoint: mean survival time, dose: 12.0 mg/kg/injection, schedule: Q01DX009 (ip), vehicle: Klucel (hydroxypropylcellulose) (HPC)) is on record as 3 of 6; the survivor count (T/C endpoint: mean survival time, dose: 25.0 mg/kg/injection, schedule: Q04DX003 (ip), vehicle: Klucel (hydroxypropylcellulose) (HPC)) is on record as 6 of 6; the survivor count (T/C endpoint: mean survival time, dose: 50.0 mg/kg/injection, schedule: Q04DX003 (ip), vehicle: Klucel (hydroxypropylcellulose) (HPC)) is on record as 0 of 6; the survivor count (T/C endpoint: mean survival time, dose: 100.0 mg/kg/injection, schedule: Q04DX003 (ip), vehicle: Klucel (hydroxypropylcellulose) (HPC)) is on record as 0 of 6; the survivor count (T/C endpoint: mean survival time, dose: 200.0 mg/kg/injection, schedule: Q04DX003 (ip), vehicle: Klucel (hydroxypropylcellulose) (HPC)) is listed as 0 of 6. For the same compound, where the note is “T/C endpoint: mean survival time, dose: 400.0 mg/kg/injection, schedule: Q04DX003 (ip), vehicle: Klucel (hydroxypropylcellulose) (HPC)”, the survivor count was 0 of 6.
Take `COC1(c2ccccc2)CN(Cc2ccccc2)CCO1` (centres undefined): the survivor count (T/C endpoint: mean survival time, dose: 400.0 mg/kg/injection, schedule: Q01DX009 (ip), vehicle: Klucel (hydroxypropylcellulose) (HPC)) is listed as 2 of 6.
On to `CC(C)OC(=S)SSc1nc2ccccc2s1`, for which the survivor count under setting [2] is 3 of 6.
As for `CC(C)(C)NC(=O)C1CC2(C)CCC1C2(C)C` (centres undefined), the T/C (T/C endpoint: mean survival time, dose: 300.0 mg/kg/injection, schedule: Q01DX001 (ip), vehicle: other) was 126 % of control.
In the case of `C/C(=C/c1c(C)[nH]c(=O)[nH]c1=O)C(=O)O`, the survivor count under setting [3] is 5 of 6.
As for `CN(CCO)/N=N/c1[nH]ncc1C(N)=O`, the T/C was 130 % of control (T/C endpoint: mean survival time, dose: 80.0 mg/kg/injection, schedule: Q01DX009 (ip), vehicle: other); 134 % of control (T/C endpoint: mean survival time, dose: 118.0 mg/kg/injection, schedule: Q01DX009 (ip), vehicle: other); 143 % of control (T/C endpoint: mean survival time, dose: 172.0 mg/kg/injection, schedule: Q01DX009 (ip), vehicle: saline with Tween-80); 145 % of control (T/C endpoint: mean survival time, dose: 268.0 mg/kg/injection, schedule: Q01DX009 (ip), vehicle: other); 141 % of control (T/C endpoint: mean survival time, dose: 1889.0 mg/kg/injection, schedule: Q01DX001 (ip), vehicle: saline with Tween-80); 131 % of control (T/C endpoint: median survival time, dose: 125.0 mg/kg/injection, schedule: Q01DX009 (ip), vehicle: saline).
For `Cc1ccn2c(=O)c(CCBr)c(C)nc2c1`, the survivor count by setting is: (T/C endpoint: mean survival time, dose: 37.5 mg/kg/injection, schedule: Q04DX003 (ip), vehicle: saline) 6 of 6; (T/C endpoint: mean survival time, dose: 75.0 mg/kg/injection, schedule: Q04DX003 (ip), vehicle: saline) 1 of 6.
For the compound `Cc1ccc(Oc2ccc3cc[n+](C)cc3c2)cc1`, the survivor count (T/C endpoint: mean survival time, dose: 50.0 mg/kg/injection, schedule: Q04DX002 (ip), vehicle: DMSO) was 1 of 3; the survivor count (T/C endpoint: mean survival time, dose: 100.0 mg/kg/injection, schedule: Q04DX002 (ip), vehicle: DMSO) is 0 of 3 and 1 of 3; the survivor count (T/C endpoint: mean survival time, dose: 200.0 mg/kg/injection, schedule: Q04DX002 (ip), vehicle: DMSO) is 0 of 3; the survivor count (T/C endpoint: mean survival time, dose: 400.0 mg/kg/injection, schedule: Q04DX002 (ip), vehicle: DMSO) is listed as 0 of 3.
As for `C=CCSc1ccc(Cl)cc1`, the survivor count under setting [1] is listed as 2 of 6.
Take `Clc1ccc(OCc2sc3ccc(Cl)cc3c2CN2CCCCC2)cc1`: the survivor count reads like this: (T/C endpoint: mean survival time, dose: 200.0 mg/kg/injection, schedule: Q04DX003 (ip), vehicle: saline with Tween-80) 6 of 6; under setting [2], 6 of 6.
As for `Cc1ccnc2c3c4c(cc12)c(C)cc(=O)n4CO3`, the T/C (T/C endpoint: mean survival time, dose: 75.0 mg/kg/injection, schedule: Q01DX009 (ip), vehicle: Klucel (hydroxypropylcellulose) (HPC)) is 125 % of control. Besides, the survivor count (T/C endpoint: mean survival time, dose: 300.0 mg/kg/injection, schedule: Q01DX009 (ip), vehicle: Klucel (hydroxypropylcellulose) (HPC)) was 2 of 6.
As for `O=C1c2ccccc2CC1(Br)Br`, the survivor count (T/C endpoint: mean survival time, dose: 400.0 mg/kg/injection, schedule: Q04DX003 (ip), vehicle: other) is reported as 1 of 6.
As to `O=C1/C(=C\c2ccc([N+](=O)[O-])cc2)CS(=O)(=O)C/C1=C/c1ccc([N+](=O)[O-])cc1`, the survivor count under setting [1] is listed as 2 of 6.
In the case of `CC(=O)NC(CS)C(=O)O` (centres undefined), the T/C is 98 % of control (T/C endpoint: median survival time, dose: 500.0 mg/kg/injection, schedule: Q01DX001 (ip), vehicle: saline, evaluated on day 5); 100 % of control (T/C endpoint: median survival time, dose: 500.0 mg/kg/injection, schedule: Q01DX001 (ip), vehicle: saline, evaluated on day 30); 98 % of control (T/C endpoint: median survival time, dose: 500.0 mg/kg/injection, schedule: Q01DX001 (ip), vehicle: saline, evaluated on day 55); 100 % of control (T/C endpoint: median survival time, dose: 500.0 mg/kg/injection, schedule: Q01DX001 (ip), vehicle: saline, evaluated on day 60); 100 % of control (T/C endpoint: median survival time, dose: 500.0 mg/kg/injection, schedule: Q01DX001 (ip), vehicle: saline, evaluated on day 62); 90, 95, 98, 127 % of control (T/C endpoint: median survival time, dose: 1000.0 mg/kg/injection, schedule: Q01DX001 (ip), vehicle: saline, evaluated on day 5). Also, the T/C by setting is: (T/C endpoint: median survival time, dose: 1000.0 mg/kg/injection, schedule: Q01DX001 (ip), vehicle: saline, evaluated on day 30) 94 % of control; (T/C endpoint: median survival time, dose: 1000.0 mg/kg/injection, schedule: Q01DX001 (ip), vehicle: saline, evaluated on day 45) 94 and 105 % of control; (T/C endpoint: median survival time, dose: 1000.0 mg/kg/injection, schedule: Q01DX001 (ip), vehicle: saline, evaluated on day 55) 90 % of control; (T/C endpoint: median survival time, dose: 1000.0 mg/kg/injection, schedule: Q01DX001 (ip), vehicle: saline, evaluated on day 60) 100 % of control; (T/C endpoint: median survival time, dose: 1000.0 mg/kg/injection, schedule: Q01DX001 (ip), vehicle: saline, evaluated on day 62) 100 % of control; (T/C endpoint: median survival time, dose: 1000.0 mg/kg/injection, schedule: Q01DX001 (ip), vehicle: saline, evaluated on day 90) 100 % of control (2×). Moreover, the T/C is, setting by setting: (T/C endpoint: median survival time, dose: 1500.0 mg/kg/injection, schedule: Q01DX001 (ip), vehicle: saline, evaluated on day 5) 95, 100, 133 % of control; (T/C endpoint: median survival time, dose: 1500.0 mg/kg/injection, schedule: Q01DX001 (ip), vehicle: saline, evaluated on day 45) 94 and 111 % of control; (T/C endpoint: median survival time, dose: 1500.0 mg/kg/injection, schedule: Q01DX001 (ip), vehicle: saline, evaluated on day 90) 100 and 111 % of control.
Consider `CCCCN(CCCC)C(=O)C1C=C2c3cccc4[nH]cc(c34)CC2N(C)C1` (centres undefined), for which the survivor count (T/C endpoint: mean survival time, dose: 400.0 mg/kg/injection, schedule: Q01DX009 (ip), vehicle: water) was 0 of 6.
With `CCCCC[C@H](O)/C=C/[C@@H]1[C@@H](C/C=C\CCCC(=O)O)[C@@H](O)C[C@H]1O`, the survivor count (T/C endpoint: mean survival time, dose: 40.0 mg/kg/injection, schedule: Q04DX002 (ip), vehicle: saline) was 0 of 3; the survivor count (T/C endpoint: mean survival time, dose: 80.0 mg/kg/injection, schedule: Q04DX002 (ip), vehicle: saline) is listed as 1 of 3; the survivor count (T/C endpoint: mean survival time, dose: 160.0 mg/kg/injection, schedule: Q04DX002 (ip), vehicle: saline) is given as 0 of 3; the survivor count (T/C endpoint: mean survival time, dose: 320.0 mg/kg/injection, schedule: Q04DX002 (ip), vehicle: saline) is listed as 0 of 3.
In the case of `CCCCCCCCC(=O)CCCCC`, under setting [3], the survivor count is reported as 6 of 6.
As for `Cc1nc(Cl)c(C(N)=O)nc1C`, the survivor count reads like this: (T/C endpoint: mean survival time, dose: 200.0 mg/kg/injection, schedule: Q01DX009 (ip), vehicle: saline with Tween-80) 3 of 6; (T/C endpoint: mean survival time, dose: 400.0 mg/kg/injection, schedule: Q01DX009 (ip), vehicle: saline with Tween-80) 4 of 6.
